Data on 3 molecules can be found in doi:10.1101/2022.09.05.506649.

Chains of the proteins cited; added tags and fusions are not shown. Residues count along the entry.
UniProt P0CS90, residues 24-654: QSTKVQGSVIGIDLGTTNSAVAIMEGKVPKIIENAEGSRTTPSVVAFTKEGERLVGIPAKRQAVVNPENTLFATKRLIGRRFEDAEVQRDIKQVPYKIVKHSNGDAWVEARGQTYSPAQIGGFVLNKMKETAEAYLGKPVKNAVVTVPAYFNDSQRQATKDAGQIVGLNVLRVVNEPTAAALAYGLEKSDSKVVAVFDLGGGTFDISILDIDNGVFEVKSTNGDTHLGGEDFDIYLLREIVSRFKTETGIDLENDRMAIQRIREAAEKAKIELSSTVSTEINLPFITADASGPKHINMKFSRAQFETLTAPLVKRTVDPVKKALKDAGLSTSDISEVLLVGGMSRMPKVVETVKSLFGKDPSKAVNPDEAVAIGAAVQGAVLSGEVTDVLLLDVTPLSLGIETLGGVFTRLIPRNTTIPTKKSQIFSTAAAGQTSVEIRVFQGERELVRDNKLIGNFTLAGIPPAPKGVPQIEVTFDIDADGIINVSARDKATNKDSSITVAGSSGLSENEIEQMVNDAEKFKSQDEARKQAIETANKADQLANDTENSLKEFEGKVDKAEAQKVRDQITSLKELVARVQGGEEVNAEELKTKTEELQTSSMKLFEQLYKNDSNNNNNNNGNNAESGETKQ

No constants are given. Whether binding was seen depends on the method and setting. In cells and extracts the contact can be indirect. Some results given as binding are weak or reduced against the parent protein; the word gives no strength.

In the experiment the target is mitochondrial Hsp70 (mtHsp70), Ssc1, the major mtHsp70 in yeast (S. cerevisiae (endogenous in yeast mitochondria)) (UniProt P0CS90). Kind of experiment: co-IP.

B1: Tim14 (protein, UniProt Q07914 1-168)
chain: MSSQSNTGNSIEAPQLPIPGQTNGSANVTVDGAGVNVGIQNGSQGQKTGMDLYFDQALNYMGEHPVITGFGAFLTLYFTAGAYKSISKGLNGGKSTTAFLKGGFDPKMNSKEALQILNLTENTLTKKKLKEVHRKIMLANHPDKGGSPFLATKINEAKDFLEKRGISK
With B1, the binding result is listed as “binds”.

B2: Hep1, a dedicated chaperone for mtHsp70 (protein, UniProt P42844 48-174)
chain: NEVKKDDKKVHLGSFKVDKPKMMIAFTCKKCNTRSSHTMSKQAYEKGTVLISCPHCKVRHLIADHLKIFHDHHVTVEQLMKANGEQVSQDVGDLEFEDIPDSLKDVLGKYAKNNSENASQLPHPSQK
Regarding B2, the binding entry is given as “binds”.

B3: Tim17 (protein, UniProt P39515 1-158)
chain: MSADHSRDPCPIVILNDFGGAFAMGAIGGVVWHGIKGFRNSPLGERGSGAMSAIKARAPVLGGNFGVWGGLFSTFDCAVKAVRKREDPWNAIIAGFFTGGALAVRGGWRHTRNSSITCACLLGVIEGVGLMFQRYAAWQAKPMAPPLPEAPSSQPLQA
Regarding B3, the binding entry was “binds”.
